Experimental data reported in the supplement of paper PMC10727501.
This is one part of the list. Repeats in this data set agree poorly, so a single value says little.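 Researchers measured free-swimming zebrafish larvae's O-bend response probability to dark flashes (naive: first five; training: remaining flashes of four 60-flash blocks; test: later 60-flash block) and OMR turning toward alternating leftward/rightward LED motion. Six treated larvae were compared to sixty 0.1% DMSO controls, with |SSMD|≥2 marking a hit.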

Test system: Danio rerio larvae (5 dpf, TLF)
Experiment: Prob-Train (SSMD vs DMSO vehicle); higher = higher than vehicle (e.g. higher dark-flash O-bend response probability, or better optomotor performance)
Details: 10 µM; pre-incubation: 30-90 min

| Structure (SMILES) | Prob-Train |
| --- | --- |
| COc1cc(F)c(C(C)C)cc1-c1ccc(C(F)(F)F)cc1CN1C(=O)O[C@H](c2cc(C(F)(F)F)cc(C(F)(F)F)c2)[C@H]1C [Anacetrapib (MK-0859)] | 0.0588 |
| C=C1CC[C@H](O)C/C1=C\C=C1/CCC[C@@]2(C)[C@H]1CC[C@H]2[C@H](C)CCCC(C)(C)O [Calcifediol] | -1.59 |
| O=C(c1cncc(Br)c1)N1CCC(N2CCCC2)CC1 | -0.195 |
| CC(C)(C)NC[C@H](O)COc1nsnc1N1CCOCC1.O=C(O)/C=C/C(=O)O [Timolol Maleate] | -0.338 |
| CCN[C@H]1CN(CCCOC)S(=O)(=O)c2sc(S(N)(=O)=O)cc21 [Brinzolamide] | 0.321 |
